{"source": "PubChem BioAssay AID504808 (Drosophila RNAi Screening Center, 2011)", "purpose": "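Chromatin factors that keep E2F targets switched off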 (primary screen)", "cells": "Drosophila S2 cells", "reagent": "long dsRNA against Drosophila genes", "measurement": "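Dual luciferase plate measurements; E2F-specific signal taken as firefly over Renilla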", "direction": "E2F firefly: higher = more E2F reporter activity; Renilla normaliser: higher = more normaliser reporter signal", "rule for the call": "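Called active if the normalised E2F reporter went up by over 50%; the cutoff is arbitrary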", "note": "The deposit covers about 21,000 reagents; below is a random part of those with a known target gene and a result. Of all reagents, 18 (0.084%) got an active call. 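Raw counts without plate normalisation, one of two replicates; the ratio scores behind the calls were not deposited.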 No sequences are given here. Not given: the amount of reagent, the time to read-out."}
{"target":"CG5282","amplicon":"DRSC11775","E2F firefly, rep 1":72381,"Renilla normaliser, rep 1":3741,"activity call":"inactive"}
{"target":"CG3402","amplicon":"DRSC08567","E2F firefly, rep 1":83520,"Renilla normaliser, rep 1":3505,"activity call":"inactive"}
{"target":"Syx4 (Syntaxin 4)","amplicon":"DRSC18586","E2F firefly, rep 1":1.30e5,"Renilla normaliser, rep 1":5702,"activity call":"inactive"}
{"target":"Taldo (Transaldolase)","amplicon":"DRSC04320","E2F firefly, rep 1":90670,"Renilla normaliser, rep 1":3936,"activity call":"inactive"}
{"target":"gkt (glaikit)","amplicon":"DRSC00821","E2F firefly, rep 1":1.38e5,"Renilla normaliser, rep 1":4920,"activity call":"inactive"}
{"target":"Pvr (PDGF- and VEGF-receptor related)","amplicon":"DRSC03080","E2F firefly, rep 1":93884,"Renilla normaliser, rep 1":3971,"activity call":"inactive"}
{"target":"CG14377","amplicon":"DRSC14837","E2F firefly, rep 1":1.12e5,"Renilla normaliser, rep 1":5903,"activity call":"inactive"}
{"target":"CG13040","amplicon":"DRSC09921","E2F firefly, rep 1":1.79e5,"Renilla normaliser, rep 1":8897,"activity call":"inactive"}
{"target":"lectin-37Db","amplicon":"DRSC03279","E2F firefly, rep 1":89873,"Renilla normaliser, rep 1":3870,"activity call":"inactive"}
{"target":"CycB (Cyclin B)","amplicon":"DRSC04605","E2F firefly, rep 1":73027,"Renilla normaliser, rep 1":3620,"activity call":"inactive"}
{"target":"St4 (Sulfotransferase 4)","amplicon":"DRSC07008","E2F firefly, rep 1":1.05e5,"Renilla normaliser, rep 1":4407,"activity call":"inactive"}
{"target":"CG34330","amplicon":"DRSC20043","E2F firefly, rep 1":1.45e5,"Renilla normaliser, rep 1":7927,"activity call":"inactive"}

Part of the list above, reduced to “Renilla normaliser, rep 1”.
Pvr (PDGF- and VEGF-receptor related) [DRSC03080]: 3971
CG14377 [DRSC14837]: 5903
